{"source": "patent US12213958B2", "about": "“Compositions, methods, systems and/or kits for preventing and/or treating neoplasms” (Research Cancer Institute of America, priority 2017, dated 2025)", "test_system": "invasive ductal breast carcinoma", "assay": "Case study Example 14, breast cancer", "assay_type": "in vivo, human", "conditions": "during the course of treatment", "note": "At least one compound was matched to its structure with a doubt left.", "data": [{"smiles": "CN(C)C/C=C/C(=O)Nc1cc2c(Nc3ccc(F)c(Cl)c3)ncnc2cc1O[C@H]1CCOC1", "note": "[Afatinib]", "values": [{"measurement": "effectiveness of anti Her2 therapy alone", "result": "not effective"}]}]}
